Data as given in paper PMC13334641.
Results are given in words; binding and its absence hold for the method and conditions named. Binding seen in cells or lysates may run through a third protein. Some results given as binding are weak or reduced against the parent protein; the word gives no strength.

Amino acid sequences for entries named in this document (tags omitted). Residues count along the entry.
UniProt Q9QYS2, residues 23-879: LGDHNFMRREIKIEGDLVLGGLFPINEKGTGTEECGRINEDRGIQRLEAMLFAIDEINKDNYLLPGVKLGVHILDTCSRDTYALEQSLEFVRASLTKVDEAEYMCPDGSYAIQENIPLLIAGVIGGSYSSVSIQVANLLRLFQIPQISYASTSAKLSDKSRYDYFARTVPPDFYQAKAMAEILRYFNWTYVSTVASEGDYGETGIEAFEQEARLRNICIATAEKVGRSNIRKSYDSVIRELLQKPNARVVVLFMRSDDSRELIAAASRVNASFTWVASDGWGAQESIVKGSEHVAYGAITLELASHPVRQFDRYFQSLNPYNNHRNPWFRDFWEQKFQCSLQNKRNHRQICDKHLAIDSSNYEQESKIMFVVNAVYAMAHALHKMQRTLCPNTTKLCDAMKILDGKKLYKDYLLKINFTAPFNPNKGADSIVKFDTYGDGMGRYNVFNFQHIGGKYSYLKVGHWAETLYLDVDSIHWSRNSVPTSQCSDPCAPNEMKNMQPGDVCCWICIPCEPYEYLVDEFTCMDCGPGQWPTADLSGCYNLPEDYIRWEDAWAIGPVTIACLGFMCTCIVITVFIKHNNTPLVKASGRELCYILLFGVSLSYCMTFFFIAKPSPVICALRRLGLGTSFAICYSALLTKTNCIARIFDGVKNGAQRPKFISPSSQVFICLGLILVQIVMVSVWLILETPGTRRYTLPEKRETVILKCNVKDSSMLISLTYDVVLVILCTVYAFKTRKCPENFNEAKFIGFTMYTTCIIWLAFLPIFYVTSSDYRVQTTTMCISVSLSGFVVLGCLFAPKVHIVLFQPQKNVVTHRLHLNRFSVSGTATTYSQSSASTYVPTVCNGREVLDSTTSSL
UniProt Q14BI2, residues 19-872: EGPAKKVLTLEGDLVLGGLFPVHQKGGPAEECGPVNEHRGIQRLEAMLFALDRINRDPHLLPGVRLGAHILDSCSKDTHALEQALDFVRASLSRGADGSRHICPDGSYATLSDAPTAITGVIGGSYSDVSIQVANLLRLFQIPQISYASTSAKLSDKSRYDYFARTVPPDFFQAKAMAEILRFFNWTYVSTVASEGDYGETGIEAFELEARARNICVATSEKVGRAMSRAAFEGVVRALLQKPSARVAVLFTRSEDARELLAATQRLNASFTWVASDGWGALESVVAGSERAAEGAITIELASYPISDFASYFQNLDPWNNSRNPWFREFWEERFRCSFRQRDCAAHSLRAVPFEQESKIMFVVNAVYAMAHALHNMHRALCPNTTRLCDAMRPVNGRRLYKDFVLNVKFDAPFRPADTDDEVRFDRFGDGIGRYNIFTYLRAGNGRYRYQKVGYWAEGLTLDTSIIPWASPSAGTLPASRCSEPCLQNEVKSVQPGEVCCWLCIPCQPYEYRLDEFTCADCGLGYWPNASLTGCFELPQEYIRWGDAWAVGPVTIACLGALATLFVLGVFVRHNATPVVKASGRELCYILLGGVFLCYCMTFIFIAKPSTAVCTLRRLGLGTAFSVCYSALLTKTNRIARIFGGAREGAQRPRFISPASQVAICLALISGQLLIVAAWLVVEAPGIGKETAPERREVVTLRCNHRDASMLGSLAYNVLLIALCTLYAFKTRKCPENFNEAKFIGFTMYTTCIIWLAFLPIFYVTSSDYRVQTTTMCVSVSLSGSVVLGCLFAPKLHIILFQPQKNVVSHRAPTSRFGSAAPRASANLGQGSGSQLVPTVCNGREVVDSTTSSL
UniProt Q14416, residues 19-872: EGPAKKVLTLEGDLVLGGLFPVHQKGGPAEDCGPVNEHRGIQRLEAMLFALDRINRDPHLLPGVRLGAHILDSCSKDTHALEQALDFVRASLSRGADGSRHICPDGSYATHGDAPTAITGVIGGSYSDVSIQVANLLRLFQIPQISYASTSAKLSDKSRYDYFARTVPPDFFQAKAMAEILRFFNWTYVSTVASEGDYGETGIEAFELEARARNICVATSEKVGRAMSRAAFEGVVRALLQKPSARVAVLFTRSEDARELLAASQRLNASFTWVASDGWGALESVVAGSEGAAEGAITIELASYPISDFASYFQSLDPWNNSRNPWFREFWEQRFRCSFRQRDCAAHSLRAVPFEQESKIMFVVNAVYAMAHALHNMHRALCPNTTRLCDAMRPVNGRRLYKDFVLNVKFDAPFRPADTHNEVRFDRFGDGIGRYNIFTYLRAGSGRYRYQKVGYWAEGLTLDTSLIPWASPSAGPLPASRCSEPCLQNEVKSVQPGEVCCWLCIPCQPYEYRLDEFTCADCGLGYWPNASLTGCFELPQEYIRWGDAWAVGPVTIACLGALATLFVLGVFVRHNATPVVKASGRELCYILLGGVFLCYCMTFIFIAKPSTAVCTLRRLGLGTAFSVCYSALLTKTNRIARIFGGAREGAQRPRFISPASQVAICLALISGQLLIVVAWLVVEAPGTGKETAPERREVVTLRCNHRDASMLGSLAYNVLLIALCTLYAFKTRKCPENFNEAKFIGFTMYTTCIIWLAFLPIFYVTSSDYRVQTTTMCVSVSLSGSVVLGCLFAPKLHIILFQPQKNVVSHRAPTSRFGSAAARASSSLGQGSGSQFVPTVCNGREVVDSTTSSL
UniProt P12023, residues 18-770: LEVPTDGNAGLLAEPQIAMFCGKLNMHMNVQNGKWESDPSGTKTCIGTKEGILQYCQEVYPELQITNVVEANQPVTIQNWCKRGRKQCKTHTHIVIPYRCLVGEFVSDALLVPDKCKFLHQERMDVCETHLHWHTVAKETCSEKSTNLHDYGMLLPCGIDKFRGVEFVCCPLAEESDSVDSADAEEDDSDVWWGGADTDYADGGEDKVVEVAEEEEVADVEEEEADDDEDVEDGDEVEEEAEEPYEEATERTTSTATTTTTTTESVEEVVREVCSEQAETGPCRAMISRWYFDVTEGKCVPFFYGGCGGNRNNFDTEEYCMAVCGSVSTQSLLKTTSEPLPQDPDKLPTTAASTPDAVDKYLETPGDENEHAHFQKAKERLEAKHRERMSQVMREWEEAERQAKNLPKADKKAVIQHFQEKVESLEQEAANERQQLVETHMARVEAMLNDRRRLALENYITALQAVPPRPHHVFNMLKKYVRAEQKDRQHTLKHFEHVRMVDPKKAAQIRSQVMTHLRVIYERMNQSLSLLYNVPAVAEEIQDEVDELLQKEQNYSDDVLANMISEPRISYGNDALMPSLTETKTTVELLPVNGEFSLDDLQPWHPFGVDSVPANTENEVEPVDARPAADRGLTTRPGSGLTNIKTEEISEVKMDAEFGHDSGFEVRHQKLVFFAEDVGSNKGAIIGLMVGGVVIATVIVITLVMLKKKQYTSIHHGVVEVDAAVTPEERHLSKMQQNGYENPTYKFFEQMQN
UniProt P41594, residues 21-1212: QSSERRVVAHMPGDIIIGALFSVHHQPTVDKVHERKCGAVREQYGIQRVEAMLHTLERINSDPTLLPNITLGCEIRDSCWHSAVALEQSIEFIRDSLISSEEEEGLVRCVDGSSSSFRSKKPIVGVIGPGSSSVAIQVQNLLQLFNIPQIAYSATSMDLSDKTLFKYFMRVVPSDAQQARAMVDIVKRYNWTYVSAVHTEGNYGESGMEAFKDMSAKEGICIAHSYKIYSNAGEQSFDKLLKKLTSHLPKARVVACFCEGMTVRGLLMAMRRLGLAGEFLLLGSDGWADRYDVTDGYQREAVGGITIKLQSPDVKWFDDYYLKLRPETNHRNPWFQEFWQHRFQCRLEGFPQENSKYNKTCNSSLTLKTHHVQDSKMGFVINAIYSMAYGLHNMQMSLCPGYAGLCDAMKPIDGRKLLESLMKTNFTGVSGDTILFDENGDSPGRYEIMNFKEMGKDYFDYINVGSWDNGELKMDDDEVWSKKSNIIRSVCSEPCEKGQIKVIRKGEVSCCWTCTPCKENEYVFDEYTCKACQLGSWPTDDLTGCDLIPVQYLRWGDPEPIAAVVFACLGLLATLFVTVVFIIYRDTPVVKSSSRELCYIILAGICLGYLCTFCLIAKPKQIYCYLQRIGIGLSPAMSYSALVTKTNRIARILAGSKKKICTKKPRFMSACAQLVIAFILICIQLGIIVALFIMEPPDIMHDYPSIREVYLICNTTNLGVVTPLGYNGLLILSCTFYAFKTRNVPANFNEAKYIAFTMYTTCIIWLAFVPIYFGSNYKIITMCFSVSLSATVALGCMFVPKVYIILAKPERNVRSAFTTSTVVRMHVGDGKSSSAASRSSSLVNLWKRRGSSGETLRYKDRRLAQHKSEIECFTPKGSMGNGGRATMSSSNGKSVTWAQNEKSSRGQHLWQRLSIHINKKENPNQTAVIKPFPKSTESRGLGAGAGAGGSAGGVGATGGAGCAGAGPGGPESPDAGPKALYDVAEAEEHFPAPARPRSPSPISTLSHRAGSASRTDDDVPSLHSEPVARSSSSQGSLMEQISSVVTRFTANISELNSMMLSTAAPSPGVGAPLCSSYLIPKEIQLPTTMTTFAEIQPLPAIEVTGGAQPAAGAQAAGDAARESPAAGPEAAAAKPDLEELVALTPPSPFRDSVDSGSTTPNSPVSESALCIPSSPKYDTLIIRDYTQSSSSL
UniProt Q14832, residues 23-879: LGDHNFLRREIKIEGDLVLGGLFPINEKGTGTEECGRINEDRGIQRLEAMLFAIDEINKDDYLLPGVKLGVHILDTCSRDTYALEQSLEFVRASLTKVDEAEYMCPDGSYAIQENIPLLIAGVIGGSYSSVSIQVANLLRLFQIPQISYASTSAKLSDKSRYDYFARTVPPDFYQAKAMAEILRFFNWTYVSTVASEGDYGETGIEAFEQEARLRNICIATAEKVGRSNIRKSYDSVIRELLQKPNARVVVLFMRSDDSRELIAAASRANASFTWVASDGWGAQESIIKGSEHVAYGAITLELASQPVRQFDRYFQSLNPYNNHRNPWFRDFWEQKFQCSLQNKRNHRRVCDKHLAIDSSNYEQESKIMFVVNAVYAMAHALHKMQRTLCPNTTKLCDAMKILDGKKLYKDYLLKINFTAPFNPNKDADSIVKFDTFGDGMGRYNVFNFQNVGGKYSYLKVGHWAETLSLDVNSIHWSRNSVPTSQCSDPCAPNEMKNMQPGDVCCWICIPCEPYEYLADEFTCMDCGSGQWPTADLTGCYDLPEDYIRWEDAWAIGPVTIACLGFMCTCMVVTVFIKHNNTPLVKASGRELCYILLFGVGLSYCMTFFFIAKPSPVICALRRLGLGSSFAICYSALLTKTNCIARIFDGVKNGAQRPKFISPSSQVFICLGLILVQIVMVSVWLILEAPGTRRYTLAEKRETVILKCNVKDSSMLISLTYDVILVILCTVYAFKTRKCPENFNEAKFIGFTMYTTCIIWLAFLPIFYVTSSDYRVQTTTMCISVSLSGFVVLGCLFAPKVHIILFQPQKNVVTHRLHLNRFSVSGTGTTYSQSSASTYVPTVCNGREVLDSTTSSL

Experiments:
[1] = molecular target: endogenous mGluR3 (mouse cortex) (mouse (endogenous in cortex)) (UniProt Q9QYS2); experiment: co-IP; immunoprecipitation of the endogenous receptors from WT mouse cortex lysate (1 mg protein; 0.1% SDS, 2% Triton X-100, 2% LMNG) with receptor-specific nanobodies and Ni-NTA agarose beads; washes with 500 mM and 150 mM NaCl; western blot for APP
[2] = molecular target: endogenous mGluR2 (mouse cortex) (mouse (endogenous in cortex)) (UniProt Q14BI2); experiment: as above
[3] = molecular target: Snap‐tagged human mGluR2 (human) (UniProt Q14416); experiment: FRET or BRET; TR-FRET saturation assay at the surface of living HEK293T cells; fixed amount (20 ng) of the Snap-tagged construct labelled with Snap-Lumi4-Tb (donor), increasing amounts (0 to 160 ng) of the Halo-tagged construct labelled with Halo-red (acceptor); non-cell-permeant reagents
Snap‐tagged APP = Snap‐tagged APP (UniProt P05067); experiment: as above

With “APP (endogenous, mouse cortex) (from UniProt P12023 18-770)” the binding [1] was “binds” and the binding [2] was “no binding”.

“Halo‐tagged mGluR5 (from UniProt P41594 21-1212) (receptor)” was tested, and the binding [3] was “no binding”.

In the case of “Halo‐tagged mGluR3 (from UniProt Q14832 23-879) (receptor)”, the binding (Snap‐tagged APP) is reported as “binds”.
